This test deals with mNedd4-2-GFP (short isoform of mouse Nedd4-2, lacking the C2 domain) (mouse). As to the kind of experiment: affinity purification with mass spectrometry; GFP-Trap magnetic agarose on lysates of CCD cells transfected with mNedd4-2-GFP or pEGFP-N1 control; MG132 and CQ for 4 h before lysis; 150 mM NaCl, 20 mM Tris pH 7.5, 1% Triton X-100; 4 °C, 3 h; LC-MS/MS, three replicates.

No constants are given. Whether binding was seen depends on the method and setting. Binding seen in cells or lysates may run through a third protein. A yes stands for co-enrichment or nearness to the bait. Other partners may have been found.

B1: phospholipid scramblase 1 (PLSCR1), endogenous in CCD cells (protein, UniProt Q9JJ00 1-328)
chain: MENHSKQTEAPHPGTYMPAGYPPPYPPAAFQGPSDHAAYPIPQAGYQGPPGPYPGPQPGYPVPPGGYAGGGPSGFPVQNQPAYNHPGGPGGTPWMPAPPPPLNCPPGLEYLAQIDQLLVHQQIELLEVLTGFETNNKYEIKNSLGQRVYFAVEDTDCCTRNCCGASRPFTLRILDNLGREVMTLERPLRCSSCCFPCCLQEIEIQAPPGVPVGYVTQTWHPCLPKFTLQNEKKQDVLKVVGPCVVCSCCSDIDFELKSLDEESVVGKISKQWSGFVREAFTDADNFGIQFPLDLDVKMKAVMLGACFLIDFMFFERTGNEEQRSGAWQ
As to B1, the binding result is recorded as “binds”.

For the origin of these results see paper PMC12368045.
